No constants are given. Whether binding was seen depends on the method and setting. Binding seen in cells or lysates may run through a third protein. Binding can be weak; no strength is given.
Target: T1, Dentin sialoprotein (DSP), the NH2-terminal fragment of dentin sialophosphoprotein (DSPP) (mouse (endogenous in mouse odontoblastic cells and molars)) (UniProt P97399)
T1 sequence: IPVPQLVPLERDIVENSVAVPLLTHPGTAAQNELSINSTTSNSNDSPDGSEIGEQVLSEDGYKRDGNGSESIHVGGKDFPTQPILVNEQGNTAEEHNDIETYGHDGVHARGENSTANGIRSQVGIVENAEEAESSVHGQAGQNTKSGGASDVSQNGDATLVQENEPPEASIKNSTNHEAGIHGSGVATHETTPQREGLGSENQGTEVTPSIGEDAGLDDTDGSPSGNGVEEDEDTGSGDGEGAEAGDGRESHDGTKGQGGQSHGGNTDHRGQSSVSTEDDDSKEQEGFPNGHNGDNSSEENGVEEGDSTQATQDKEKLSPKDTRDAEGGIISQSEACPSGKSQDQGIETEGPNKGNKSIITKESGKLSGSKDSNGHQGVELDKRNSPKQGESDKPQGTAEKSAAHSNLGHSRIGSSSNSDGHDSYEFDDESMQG
Assay: proximity ligation; in situ Duolink PLA on fixed mouse odontoblastic cells on coverslips and on tissue sections of PN2 mouse mandibles; rabbit anti-DSP with goat anti-MMP9 or goat anti-MMP2, overnight at 4°C; red punctate signals

Chains of the proteins cited; added tags and fusions are not shown. Lines headed by an entry give the natural chain unless they say otherwise; changes in a name come on top.
UniProt P33434: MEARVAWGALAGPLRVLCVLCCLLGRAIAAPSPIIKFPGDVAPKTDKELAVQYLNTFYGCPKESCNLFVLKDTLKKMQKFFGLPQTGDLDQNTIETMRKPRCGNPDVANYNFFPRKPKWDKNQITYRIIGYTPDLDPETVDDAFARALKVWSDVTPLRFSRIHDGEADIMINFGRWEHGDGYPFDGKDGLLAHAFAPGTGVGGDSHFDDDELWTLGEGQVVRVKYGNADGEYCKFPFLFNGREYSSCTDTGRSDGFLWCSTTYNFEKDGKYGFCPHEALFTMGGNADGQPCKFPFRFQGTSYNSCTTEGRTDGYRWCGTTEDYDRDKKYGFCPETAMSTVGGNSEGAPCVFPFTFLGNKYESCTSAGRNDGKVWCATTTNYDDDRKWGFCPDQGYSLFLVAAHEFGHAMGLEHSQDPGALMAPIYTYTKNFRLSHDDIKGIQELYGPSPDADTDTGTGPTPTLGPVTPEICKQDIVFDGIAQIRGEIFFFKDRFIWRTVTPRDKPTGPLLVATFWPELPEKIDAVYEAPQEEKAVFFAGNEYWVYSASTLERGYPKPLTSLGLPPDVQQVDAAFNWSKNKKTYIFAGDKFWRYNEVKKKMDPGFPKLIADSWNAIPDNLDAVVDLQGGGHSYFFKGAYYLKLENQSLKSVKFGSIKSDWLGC

## Matrix metalloproteinase 2 (MMP2) (from UniProt P33434) (enzyme)
  binding: binds
